PubChem BioAssay AID743454 | Peter MacCallum Cancer Centre – 2014
Here is a random part of about 18,000 reagents tested. 450 of all reagents (2.5%) were called active. 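Single biological run; no consistent viability z cut-off exists, so the class columns, not z-scores, define the calls.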 A number with no mark means an inactive call. Reagent sequences are not shown.

Assay: 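Genes whose loss kills vorinostat-resistant colon cancer cells under vorinostat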 (primary screen)
Cell system: human HCT116-VR colon cancer cells, selected for vorinostat resistance
Reagent: siRNA pool against human genes, 40 nM siRNA pool
Time to read-out: vorinostat for 24 h, read-out about 72 h after transfection
Conditions: vorinostat at 2.5 µM final
Measurement: 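Cell viability by CellTiter-Fluor and caspase 3/7 activity by luminescence, each scaled to mock wells per plate, duplicates averaged, then robust z-scored over all plates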
Scale: viability robust z-score: higher = more viable cells than screen typical; caspase robust z-score: higher = more caspase 3/7 activity than screen typical
Call rule: 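a knock-down is a hit when classed RV1 or RV2 for lowered viability, or CA1 or CA2 for caspase activation; those lethal without drug were dropped; hits were retested singly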

TADA1 | viability hit class = no change; caspase hit class = no change; viability robust z-score = 0.55; caspase robust z-score = -0.57
LIG4 | viability hit class = no change; caspase hit class = no change; viability robust z-score = -0.91; caspase robust z-score = -0.29
OR2U1P | viability hit class = no change; caspase hit class = no change; viability robust z-score = 0.06; caspase robust z-score = -0.02
CDHR3 | viability hit class = no change; caspase hit class = no change; viability robust z-score = 0.22; caspase robust z-score = 1.58
PDCD6IP | viability hit class = no change; caspase hit class = no change; viability robust z-score = -0.68; caspase robust z-score = -0.8
NLRP6 | viability hit class = no change; caspase hit class = no change; viability robust z-score = 0.38; caspase robust z-score = 1.81
FAM50B | viability hit class = no change; caspase hit class = no change; viability robust z-score = -0.84; caspase robust z-score = 3.38
ZBTB20 | viability hit class = no change; caspase hit class = no change; viability robust z-score = -1.73; caspase robust z-score = 3.12
MTRR | viability hit class = no change; caspase hit class = no change; viability robust z-score = 0.46; caspase robust z-score = -0.34
MSMP | viability hit class = no change; caspase hit class = no change; viability robust z-score = 0.48; caspase robust z-score = 1.6
CD163L1 | viability hit class = no change; caspase hit class = no change; viability robust z-score = 0.45; caspase robust z-score = -0.38
FABP5 | viability hit class = no change; caspase hit class = no change; viability robust z-score = -0.1; caspase robust z-score = -1.08
APOA1 | viability hit class = no change; caspase hit class = no change; viability robust z-score = 0.48; caspase robust z-score = -0.55
FHIP2A | viability hit class = no change; caspase hit class = no change; viability robust z-score = 1.36; caspase robust z-score = -0.8
SH3RF2 | viability hit class = no change; caspase hit class = no change; viability robust z-score = 0.76; caspase robust z-score = 0.34
MYH4 | viability hit class = no change; caspase hit class = no change; viability robust z-score = -2.88; caspase robust z-score = 5.11
TAFA2 | viability hit class = no change; caspase hit class = no change; viability robust z-score = -1.12; caspase robust z-score = 0.19
HM13 | viability hit class = no change; caspase hit class = no change; viability robust z-score = -1.02; caspase robust z-score = 0.78
NGRN | viability hit class = no change; caspase hit class = no change; viability robust z-score = 0.99; caspase robust z-score = -0.17
TMPRSS9 | viability hit class = no change; caspase hit class = no change; viability robust z-score = 0.13; caspase robust z-score = 0.12
FAM131C | viability hit class = no change; caspase hit class = no change; viability robust z-score = -0.87; caspase robust z-score = 0.68

Only “caspase robust z-score”, for 2 of the entries above:
CD163L1	-0.38
FABP5	-1.08
